Most of the targets with a hit are listed elsewhere, so they are rarer here than in the full data. The data scatter; read single values as rough. The list shows a part of the results, in another mix than the full data.
Compound: COC(=O)/C=C/c1ccccc1 [methyl cinnamate]
Test: log2 ratio of iodoacetamide-alkyne labeling of the cysteine site, DMSO over compound (competition); higher = stronger covalent engagement of the cysteine by the compound, active = 1 or more
Conditions: 500 µM; treatment time 1 h; system: HEK293T cell lysate
How it was run: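 HEK293T lysate (2 mg/mL) was incubated with electrophile (500 µM) or vehicle for 1 h at ambient temperature and then with iodoacetamide alkyne for 1 h. Labelled proteins were clicked to sCIP-TMT reagents, pooled, digested, enriched on streptavidin and measured by Orbitrap Eclipse LC-MS/MS with FAIMS, with FragPipe quantification. The per-cysteine log2 competition ratio is mean control-channel reporter intensity over mean compound-channel reporter intensity. Across three replicates with duplicate channels, cysteines quantified in only one replicate were excluded.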

By UniProt entry, the sequences of proteins in these tests, tags left out. Where a name states a change or a piece, a line headed by the entry shows the natural chain unless it says otherwise.
UniProt P55199: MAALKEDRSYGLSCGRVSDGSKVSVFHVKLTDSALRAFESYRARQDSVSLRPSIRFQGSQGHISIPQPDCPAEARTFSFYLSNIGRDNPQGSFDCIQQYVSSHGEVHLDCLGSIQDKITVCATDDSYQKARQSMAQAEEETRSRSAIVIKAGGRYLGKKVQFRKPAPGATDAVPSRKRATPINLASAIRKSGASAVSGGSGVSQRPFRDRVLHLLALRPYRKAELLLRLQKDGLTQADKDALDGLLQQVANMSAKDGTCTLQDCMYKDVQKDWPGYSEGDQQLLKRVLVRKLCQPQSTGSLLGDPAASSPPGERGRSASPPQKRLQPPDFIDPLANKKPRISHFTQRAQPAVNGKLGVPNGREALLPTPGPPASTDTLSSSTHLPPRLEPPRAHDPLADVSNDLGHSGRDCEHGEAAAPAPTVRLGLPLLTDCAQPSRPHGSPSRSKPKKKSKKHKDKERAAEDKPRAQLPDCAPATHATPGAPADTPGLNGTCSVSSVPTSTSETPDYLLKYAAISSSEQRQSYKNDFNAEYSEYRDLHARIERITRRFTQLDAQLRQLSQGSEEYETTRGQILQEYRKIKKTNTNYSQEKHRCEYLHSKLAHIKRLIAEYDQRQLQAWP
UniProt P52294, whole entry, looked up: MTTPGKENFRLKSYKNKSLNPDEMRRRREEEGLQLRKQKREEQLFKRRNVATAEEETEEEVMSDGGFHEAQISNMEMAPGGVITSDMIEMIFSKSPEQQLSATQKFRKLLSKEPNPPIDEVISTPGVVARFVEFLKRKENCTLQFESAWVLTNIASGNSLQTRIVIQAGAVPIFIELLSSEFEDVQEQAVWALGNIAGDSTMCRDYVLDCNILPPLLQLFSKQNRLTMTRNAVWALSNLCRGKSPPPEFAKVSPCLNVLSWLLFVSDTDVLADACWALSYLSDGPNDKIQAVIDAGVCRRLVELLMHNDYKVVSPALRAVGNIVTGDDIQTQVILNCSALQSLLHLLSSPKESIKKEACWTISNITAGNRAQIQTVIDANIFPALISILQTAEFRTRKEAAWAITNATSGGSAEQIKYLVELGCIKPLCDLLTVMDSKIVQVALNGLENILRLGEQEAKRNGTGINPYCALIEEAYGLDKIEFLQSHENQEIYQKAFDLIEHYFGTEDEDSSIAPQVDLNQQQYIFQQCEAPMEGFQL
UniProt P51991: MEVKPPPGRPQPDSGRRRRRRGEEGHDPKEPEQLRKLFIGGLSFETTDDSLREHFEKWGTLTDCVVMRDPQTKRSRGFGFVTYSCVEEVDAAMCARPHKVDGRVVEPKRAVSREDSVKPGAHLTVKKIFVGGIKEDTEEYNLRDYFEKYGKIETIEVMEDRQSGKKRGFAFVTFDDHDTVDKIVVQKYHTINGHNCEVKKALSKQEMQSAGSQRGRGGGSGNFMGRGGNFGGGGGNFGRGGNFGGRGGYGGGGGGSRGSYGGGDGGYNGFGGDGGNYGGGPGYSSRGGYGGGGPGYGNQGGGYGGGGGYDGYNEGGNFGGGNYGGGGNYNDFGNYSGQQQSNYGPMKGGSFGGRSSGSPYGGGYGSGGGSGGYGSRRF
UniProt P55072, whole entry, looked up: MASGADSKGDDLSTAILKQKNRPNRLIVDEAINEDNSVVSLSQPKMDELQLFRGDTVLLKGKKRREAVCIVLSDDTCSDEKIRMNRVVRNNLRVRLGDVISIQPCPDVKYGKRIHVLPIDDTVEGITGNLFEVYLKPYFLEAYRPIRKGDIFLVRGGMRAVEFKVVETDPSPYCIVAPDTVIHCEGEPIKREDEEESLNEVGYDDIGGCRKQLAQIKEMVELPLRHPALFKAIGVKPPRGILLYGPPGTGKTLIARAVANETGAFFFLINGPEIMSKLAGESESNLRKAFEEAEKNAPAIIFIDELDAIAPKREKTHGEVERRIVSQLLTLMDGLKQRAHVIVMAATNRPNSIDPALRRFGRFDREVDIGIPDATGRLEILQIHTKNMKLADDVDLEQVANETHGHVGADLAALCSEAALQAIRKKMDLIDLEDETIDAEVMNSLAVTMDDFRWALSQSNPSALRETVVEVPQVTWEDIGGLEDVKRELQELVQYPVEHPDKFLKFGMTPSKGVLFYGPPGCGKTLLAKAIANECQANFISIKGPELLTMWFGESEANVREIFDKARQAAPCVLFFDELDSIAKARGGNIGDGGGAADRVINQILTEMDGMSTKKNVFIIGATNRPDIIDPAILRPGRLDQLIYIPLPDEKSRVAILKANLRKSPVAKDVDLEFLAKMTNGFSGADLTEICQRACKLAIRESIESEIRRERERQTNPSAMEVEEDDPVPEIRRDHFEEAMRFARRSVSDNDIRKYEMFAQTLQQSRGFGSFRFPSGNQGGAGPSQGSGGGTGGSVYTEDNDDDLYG
UniProt P60660, whole entry: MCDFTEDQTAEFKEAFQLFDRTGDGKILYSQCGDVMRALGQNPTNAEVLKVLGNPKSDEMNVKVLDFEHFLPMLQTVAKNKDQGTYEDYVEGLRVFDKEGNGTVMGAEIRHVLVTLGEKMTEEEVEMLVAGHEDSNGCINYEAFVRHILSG
UniProt P55795: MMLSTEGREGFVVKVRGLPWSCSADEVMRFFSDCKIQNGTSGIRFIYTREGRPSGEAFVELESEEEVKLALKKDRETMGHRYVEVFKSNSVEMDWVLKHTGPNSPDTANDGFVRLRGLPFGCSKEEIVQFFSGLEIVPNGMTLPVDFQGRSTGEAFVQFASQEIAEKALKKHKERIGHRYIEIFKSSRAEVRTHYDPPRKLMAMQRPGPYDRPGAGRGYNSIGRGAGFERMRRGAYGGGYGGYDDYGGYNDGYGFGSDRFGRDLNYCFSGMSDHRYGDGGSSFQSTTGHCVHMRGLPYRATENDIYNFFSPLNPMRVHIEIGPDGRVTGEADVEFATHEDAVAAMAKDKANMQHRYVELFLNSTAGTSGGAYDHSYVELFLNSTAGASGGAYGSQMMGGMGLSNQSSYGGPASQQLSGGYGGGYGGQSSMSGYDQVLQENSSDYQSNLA
UniProt P62068, whole entry: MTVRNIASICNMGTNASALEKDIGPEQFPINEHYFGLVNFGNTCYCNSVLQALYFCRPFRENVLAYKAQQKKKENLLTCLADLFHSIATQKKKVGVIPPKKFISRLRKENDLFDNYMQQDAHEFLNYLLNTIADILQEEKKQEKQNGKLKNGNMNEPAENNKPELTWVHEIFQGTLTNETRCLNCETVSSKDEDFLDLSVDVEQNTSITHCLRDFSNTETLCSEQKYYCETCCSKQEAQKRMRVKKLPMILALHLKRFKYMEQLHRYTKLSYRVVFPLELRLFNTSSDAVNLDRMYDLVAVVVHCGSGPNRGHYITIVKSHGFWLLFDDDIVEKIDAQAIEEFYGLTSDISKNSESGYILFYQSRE
UniProt P60174, whole entry, looked up: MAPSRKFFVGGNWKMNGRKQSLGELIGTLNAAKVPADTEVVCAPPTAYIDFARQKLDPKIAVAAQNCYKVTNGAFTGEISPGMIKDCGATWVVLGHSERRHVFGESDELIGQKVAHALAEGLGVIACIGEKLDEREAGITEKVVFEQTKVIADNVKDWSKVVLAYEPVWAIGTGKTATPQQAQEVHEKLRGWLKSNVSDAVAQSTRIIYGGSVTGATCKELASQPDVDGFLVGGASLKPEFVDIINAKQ
UniProt P53618: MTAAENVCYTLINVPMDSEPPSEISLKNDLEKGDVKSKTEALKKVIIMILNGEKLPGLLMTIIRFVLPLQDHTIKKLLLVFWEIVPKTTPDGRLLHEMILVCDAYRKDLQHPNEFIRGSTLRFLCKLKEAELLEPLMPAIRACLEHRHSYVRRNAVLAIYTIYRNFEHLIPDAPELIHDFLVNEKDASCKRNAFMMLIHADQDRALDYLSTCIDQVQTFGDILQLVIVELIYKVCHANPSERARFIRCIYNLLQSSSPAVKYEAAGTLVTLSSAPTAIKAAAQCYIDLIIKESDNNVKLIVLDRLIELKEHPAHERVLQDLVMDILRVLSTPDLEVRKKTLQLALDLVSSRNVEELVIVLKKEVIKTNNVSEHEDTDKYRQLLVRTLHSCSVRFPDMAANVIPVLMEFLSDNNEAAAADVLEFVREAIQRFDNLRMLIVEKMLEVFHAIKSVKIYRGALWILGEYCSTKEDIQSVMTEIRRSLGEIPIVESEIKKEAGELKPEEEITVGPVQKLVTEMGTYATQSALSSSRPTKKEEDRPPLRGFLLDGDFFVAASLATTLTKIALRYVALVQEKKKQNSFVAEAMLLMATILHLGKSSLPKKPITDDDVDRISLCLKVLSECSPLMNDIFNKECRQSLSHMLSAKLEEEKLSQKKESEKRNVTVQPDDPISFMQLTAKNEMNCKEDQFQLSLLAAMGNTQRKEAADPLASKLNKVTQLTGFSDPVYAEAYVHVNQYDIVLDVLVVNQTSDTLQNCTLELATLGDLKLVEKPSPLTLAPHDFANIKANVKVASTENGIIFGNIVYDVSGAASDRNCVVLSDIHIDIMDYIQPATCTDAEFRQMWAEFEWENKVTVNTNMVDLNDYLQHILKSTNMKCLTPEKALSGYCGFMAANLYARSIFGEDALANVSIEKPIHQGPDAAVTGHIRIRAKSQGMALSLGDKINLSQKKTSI
UniProt P53992: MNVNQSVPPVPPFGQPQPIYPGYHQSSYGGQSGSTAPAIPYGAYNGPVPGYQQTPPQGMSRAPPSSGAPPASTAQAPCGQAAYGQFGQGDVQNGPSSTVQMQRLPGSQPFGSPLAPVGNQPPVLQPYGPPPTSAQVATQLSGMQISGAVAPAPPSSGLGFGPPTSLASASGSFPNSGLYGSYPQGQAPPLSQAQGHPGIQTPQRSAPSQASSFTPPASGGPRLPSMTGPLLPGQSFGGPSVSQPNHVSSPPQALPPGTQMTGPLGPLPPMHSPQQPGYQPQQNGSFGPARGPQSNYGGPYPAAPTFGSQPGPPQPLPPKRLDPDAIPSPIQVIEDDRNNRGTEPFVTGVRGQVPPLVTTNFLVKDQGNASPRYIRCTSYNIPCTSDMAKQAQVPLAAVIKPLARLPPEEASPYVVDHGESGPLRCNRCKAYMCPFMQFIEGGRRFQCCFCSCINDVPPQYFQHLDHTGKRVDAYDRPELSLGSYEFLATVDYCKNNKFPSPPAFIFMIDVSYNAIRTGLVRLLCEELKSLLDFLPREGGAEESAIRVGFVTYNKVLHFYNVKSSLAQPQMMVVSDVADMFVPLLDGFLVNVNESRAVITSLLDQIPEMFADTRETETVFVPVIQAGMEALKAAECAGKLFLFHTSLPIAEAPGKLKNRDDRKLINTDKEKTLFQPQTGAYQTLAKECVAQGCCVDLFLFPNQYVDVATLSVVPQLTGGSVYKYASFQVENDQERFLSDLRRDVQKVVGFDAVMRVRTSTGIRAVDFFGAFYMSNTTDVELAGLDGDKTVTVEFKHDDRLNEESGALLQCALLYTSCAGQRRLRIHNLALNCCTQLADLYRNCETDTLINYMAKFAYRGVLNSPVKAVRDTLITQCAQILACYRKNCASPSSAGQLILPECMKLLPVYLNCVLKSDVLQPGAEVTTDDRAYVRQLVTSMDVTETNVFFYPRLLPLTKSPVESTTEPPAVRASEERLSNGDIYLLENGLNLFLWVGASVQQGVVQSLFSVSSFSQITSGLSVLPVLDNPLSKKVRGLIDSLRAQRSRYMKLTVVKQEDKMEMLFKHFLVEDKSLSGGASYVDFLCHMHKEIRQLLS
UniProt P51659: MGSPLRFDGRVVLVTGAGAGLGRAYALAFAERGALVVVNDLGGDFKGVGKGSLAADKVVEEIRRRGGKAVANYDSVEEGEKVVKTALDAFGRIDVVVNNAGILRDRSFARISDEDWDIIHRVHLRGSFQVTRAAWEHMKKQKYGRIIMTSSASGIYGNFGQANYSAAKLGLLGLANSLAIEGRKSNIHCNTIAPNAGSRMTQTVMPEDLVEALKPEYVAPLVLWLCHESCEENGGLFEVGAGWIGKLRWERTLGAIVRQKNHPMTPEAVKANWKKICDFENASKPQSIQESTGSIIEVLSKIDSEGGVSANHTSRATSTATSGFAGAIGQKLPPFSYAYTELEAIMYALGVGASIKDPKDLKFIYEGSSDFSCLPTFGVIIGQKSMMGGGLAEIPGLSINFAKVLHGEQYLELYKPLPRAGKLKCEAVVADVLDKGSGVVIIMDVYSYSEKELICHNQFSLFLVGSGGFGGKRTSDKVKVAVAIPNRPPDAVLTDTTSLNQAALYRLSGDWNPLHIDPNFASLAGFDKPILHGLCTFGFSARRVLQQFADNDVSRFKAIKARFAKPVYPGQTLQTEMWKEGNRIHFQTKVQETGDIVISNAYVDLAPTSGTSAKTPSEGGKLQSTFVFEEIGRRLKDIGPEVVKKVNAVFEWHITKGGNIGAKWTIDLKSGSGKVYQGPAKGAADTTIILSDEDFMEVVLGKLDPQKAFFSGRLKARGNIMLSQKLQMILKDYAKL

log2 ratio of iodoacetamide-alkyne labeling, inactive:
EEFSEC C55 (UniProt P57772) 0.0122
ELL C473 (UniProt P55199) 0.125
KPNA2 C272 (UniProt P52292) -0.24
PLK1 C212 (UniProt P53350) 0.358
RPS3A C96 (UniProt P61247) 0.0771
KPNA1 C210 (UniProt P52294) -0.0105
ADAR C649 (UniProt P55265) 0.091
HNRNPA3 C64 (UniProt P51991) 0.277
UniProt P55072_C535 -0.0182
UniProt P60660_C32 0.0554
UniProt P55072_C572 0.0581
COPA C975 (UniProt P53621) 0.123
UniProt P60709_C257 -0.258
SUOX C310 (UniProt P51687) 0.562
HNRNPH2 C22 (UniProt P55795) -0.0741
HNRNPF C122 (UniProt P52597) -0.135
USP46 C10 (UniProt P62068) 0.236
UniProt P60228_C298 -0.394
HK2 C158 (UniProt P52789) 0.0472
TPI1 C164 (UniProt P60174) -0.243
COPB1 C248 (UniProt P53618) 0.336
ACTR3 C235 (UniProt P61158) 0.352
HNRNPH2 C122 (UniProt P55795) -0.35
HNRNPH2 C267 (UniProt P55795) -0.0544
SEC24C C433 (UniProt P53992) 0.443
ACLY C633 (UniProt P53396) 0.187
UniProt P62249_C25 0.2
COPB1 C684 (UniProt P53618) -0.0395
UniProt P55072_C415 0.0649
ACTR3 C34 (UniProt P61158) 0.0744
RPS3A C201 (UniProt P61247) 0.00362
MARS C38 (UniProt P56192) -0.107
CSE1L C344 (UniProt P55060) 0.384
ADAR C499 (UniProt P55265) 0.18
CSE1L C842 (UniProt P55060) 0.29
HSD17B4 C277 (UniProt P51659) -0.0676
KPNA1 C337 (UniProt P52294) 0.112

3 consecutive entries from above, quoted:
log2 ratio of iodoacetamide-alkyne labeling, inactive:
UniProt P60228_C298 -0.394
HK2 C158 (UniProt P52789) 0.0472
TPI1 C164 (UniProt P60174) -0.243

Source: the supplement of paper PMC11006884
